{"sequences": {"note": "Amino acid sequences for entries named in this document (tags omitted). A change or cut given only in a name is not applied to a line headed by its entry. Chains listed by the source or under a name are the forms on record and can include a tag or linker.", "human recombinant VEGF A subunit (FIG. 12, 191 amino acid form) (P15692, form named)": "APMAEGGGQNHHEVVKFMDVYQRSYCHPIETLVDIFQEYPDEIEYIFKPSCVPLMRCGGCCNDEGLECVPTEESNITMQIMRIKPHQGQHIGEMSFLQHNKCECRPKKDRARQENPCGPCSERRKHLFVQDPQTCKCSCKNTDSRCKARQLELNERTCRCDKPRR"}, "source": "patent US6569434", "binders": {"B1": {"name": "human recombinant VEGF C subunit, 170 amino acid form (FIG. 10) (ligand)", "chain": "LPAVPPQQWALSAGNGSSEVEVVPFQEVWGRSYCRALERLVDVVSEYPSEVEHMFSPSCVSLLRCTGCCGDENLHCVPVETANVTMQLLKIRSGDRPSYVELTFSQHVRCECRPLREKMKPERRRPKGRGKRRREKQRPTDCHLCGDAVPRR"}}, "biological_target": "human recombinant VEGF A subunit (FIG. 12, 191 amino acid form) (human) (UniProt P15692)", "assay": "SDS-PAGE with silver stain of purified recombinant VEGF AC from Sf9 cells; under reducing conditions splits into 25/23 kDa (VEGF A) and 20 kDa (VEGF C) bands, assigned against pure subunits and by Western analysis", "note": "No constants are given. Whether binding was seen depends on the method and setting. Some results given as binding are weak or reduced against the parent protein; the word gives no strength."}
{"binder": "B1", "values": [{"measurement": "binding", "value": "binds"}]}
